# Out of some 220,000 compounds screened, about 2,400 (1.1%) were called active. The inconclusive results got no clear call from the source; some entries with a clear call stand among them for comparison. Calls come from the whole dose curve; as a rule, active = well fitted inhibition curve with a large enough effect; inconclusive = small, poorly fitted or top-dose-only effect, or effect the other way; inactive = no such curve, though single readings can be large or run the other way. Where the call is inconclusive, the potency comes from a doubtful curve fit.
# Test: qHTS Multiplex Assay to Identify Dual Action Probes in a Cell Model of Huntington: Aggregate Formation (GFP); note: nearly all actives have a fitted effect of over 60% in size
# Conditions: PC12 HttQ103-GFP aggregates, Acumen cytometry, 40 h; activity change, negative = inhibition: at 46.1 µM (top of the series) unless noted
# Outline: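 Inducible Q103 Huntingtin exon 1–GFP PC12 line, 1500 cells/well in phenol red free DMEM with 5% equine and 5% calf serum. Tebufenozide 100 nM induced expression; compounds titrated; aggregates quantified by cytometry.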
# % is set by controls: 0 for no effect and ±100 for the full control effect; potency is the fitted concentration of half-maximal effect.
Structure (SMILES),Potency,"activity change, negative = inhibition"
CCCn1c2c(c(O)c(C(=O)Nc3ncccc3O)c1=O)CCCC2,active: 12.6 µM,
COc1cccc(-c2nc(COc3ccc(Cl)cc3Cl)no2)c1,,inactive: 14.8% [at 9.22 µM]
CCN(CC)c1ccc(/C=N/NC(=O)C(O)(c2ccccc2)c2ccccc2)o1,"inconclusive: 22.4 µM [inhibitor, single point]",
O=C(CC1S/C(=N/N=C/C=C/c2ccccc2)NC1=O)Nc1ccc(Cl)c(Cl)c1 (stereo not drawn),"inconclusive: 17.8 µM [inhibitor, single point]",
C/C=C/C(=O)Nc1cccc(C(F)(F)F)c1,,inactive: 10.7%
COc1ccc(S(=O)(=O)NCC2CCC(C(=O)NCc3cccnc3)CC2)cc1 (stereo not drawn),"inconclusive: 35.5 µM [inhibitor, single point]",
CCOC(=O)c1ccc(-n2c(C)nc3c(cnn3-c3ccccc3Cl)c2=O)cc1,,inactive: -14.6%
CCCCNC(=S)N=Nc1c(O)[nH]c2ccccc12,"inconclusive: 20 µM [inhibitor, partial curve]",
COc1cc(NS(C)(=O)=O)c(OC)cc1NC(=O)c1ccccc1,,inactive: -16.5%
Cc1ccc(S(=O)(=O)NCCCN2CCOCC2)cc1C,,inactive: 8.76%
O=C(COC(=O)c1c(Cl)cccc1Cl)NC1CCCCC1,,inactive: 7.45%
Cc1nn(-c2ccccc2)c(C)c1C(=O)OCC(=O)c1c(N)n(CC(C)C)c(=O)n(C)c1=O,active: 5.01 µM,
CCOC(=O)CNC(=O)CSc1nnc(NC(=O)c2ccc(C)cc2)s1,,inactive: -4.34%
CCc1nnc(NS(=O)(=O)c2ccc(NC(=O)c3ccc(Cl)cc3)cc2)s1,,inactive: 11.9%
COc1ccccc1C(=O)NC(CCSC)C(=O)NC1CCCCCC1 (stereo not drawn),,inactive: 17.9%
Cc1cccc(/C(N)=N/OC(=O)N2CCOCC2)c1,"inconclusive: 15.8 µM [inhibitor, single point]",
COc1ccc(S(=O)(=O)N(Cc2cc3cc(C)ccc3[nH]c2=O)CC2CCCO2)cc1 (stereo not drawn),,inactive: 26.7%
c1csc(CCNc2ncnc3sc4c(c23)CCC4)c1,active: 7.94 µM,
CCOC(=O)C1(CCCc2ccccc2)CCN(C(=O)c2cc(C)nc(C)n2)CC1,,inactive: 1.66% [at 9.22 µM]
O=S(Cc1ccc(Br)cc1)Cc1nnc(SCc2c(F)cccc2Cl)n1-c1ccccc1 (stereo not drawn),"inconclusive: 31.6 µM [inhibitor, single point]",
CNCCC=C1c2ccccc2CCc2ccccc21,"inconclusive: 25.1 µM [inhibitor, partial curve, poor fit]",
Cc1cccc(OCCCSc2nc3ccc(C)cc3[nH]2)c1,"inconclusive: 25.1 µM [inhibitor, single point]",
COCc1nc2ccccc2n1Cc1c(F)cccc1Cl,,inactive: 14% [at 9.22 µM]
CCN(CC)c1ccc(N=Cc2ccccc2[N+](=O)[O-])cc1,,inactive: -15.5%

# Sorted by SMILES length (smallest number first): part of the list above.
Structure (SMILES),Potency,"activity change, negative = inhibition"
CNCCC=C1c2ccccc2CCc2ccccc21,"inconclusive: 25.1 µM [inhibitor, partial curve, poor fit]",
COCc1nc2ccccc2n1Cc1c(F)cccc1Cl,,inactive: 14% [at 9.22 µM]
Cc1ccc(S(=O)(=O)NCCCN2CCOCC2)cc1C,,inactive: 8.76%
O=C(COC(=O)c1c(Cl)cccc1Cl)NC1CCCCC1,,inactive: 7.45%
CCN(CC)c1ccc(N=Cc2ccccc2[N+](=O)[O-])cc1,,inactive: -15.5%
COc1cc(NS(C)(=O)=O)c(OC)cc1NC(=O)c1ccccc1,,inactive: -16.5%
COc1ccc(S(=O)(=O)NCC2CCC(C(=O)NCc3cccnc3)CC2)cc1 (stereo not drawn),"inconclusive: 35.5 µM [inhibitor, single point]",
CCc1nnc(NS(=O)(=O)c2ccc(NC(=O)c3ccc(Cl)cc3)cc2)s1,,inactive: 11.9%
CCOC(=O)C1(CCCc2ccccc2)CCN(C(=O)c2cc(C)nc(C)n2)CC1,,inactive: 1.66% [at 9.22 µM]
O=S(Cc1ccc(Br)cc1)Cc1nnc(SCc2c(F)cccc2Cl)n1-c1ccccc1 (stereo not drawn),"inconclusive: 31.6 µM [inhibitor, single point]",
O=C(CC1S/C(=N/N=C/C=C/c2ccccc2)NC1=O)Nc1ccc(Cl)c(Cl)c1 (stereo not drawn),"inconclusive: 17.8 µM [inhibitor, single point]",
COc1ccc(S(=O)(=O)N(Cc2cc3cc(C)ccc3[nH]c2=O)CC2CCCO2)cc1 (stereo not drawn),,inactive: 26.7%
Cc1nn(-c2ccccc2)c(C)c1C(=O)OCC(=O)c1c(N)n(CC(C)C)c(=O)n(C)c1=O,active: 5.01 µM,

# Further records

Structure (SMILES),Potency,"activity change, negative = inhibition"
Cc1cccc(-n2c(C)cc(/C=C3\C(=N)N4N=C(CC(C)C)SC4=NC3=O)c2C)c1,,inactive: -14.9%
O=C(CSc1nnc(-c2ccncc2)n1Cc1ccccc1)Nc1nccs1,"inconclusive: 14.1 µM [activator, partial curve]",
CN1C(=O)N(C)c2ccc(C=O)c3cccc1c23,"inconclusive: 11.2 µM [inhibitor, single point]",
CN1CCOc2cc(S(=O)(=O)Nc3ccc(F)cc3)ccc21,"inconclusive: 8.91 µM [inhibitor, partial curve]",
COc1cc2c(cc1OC)C1(CCCC1)C(N)=C2C#N,"inconclusive: 12.6 µM [inhibitor, single point]",
COc1cccc(OC)c1C(=O)N1CCOCC1,,inactive: 12.4%
CC(=O)N(Cc1ccc(F)cc1)c1cccc(C)c1C,,inactive: -2.71% [at 9.22 µM]
CN1CCc2nc(SCc3ccc(C(C)(C)C)cc3)c(C#N)cc2C1,"inconclusive: 22.4 µM [inhibitor, single point]",
Cc1nc2ncnn2c(C)c1CCC(=O)Nc1csc(N)n1,"inconclusive: 3.55 µM [inhibitor, partial curve]",
O=C(NC(=S)Nc1ccccc1N1CCCC1)c1ccccc1[N+](=O)[O-],,inactive: -3.9%
CCOC(=O)/C(=C\c1cccnc1)C(=O)c1cc(C(C)=O)c(Nc2ccccc2)s1,"inconclusive: 5.62 µM [inhibitor, single point]",
COc1ccccc1CNC(=S)NCCc1ccccc1,,inactive: -4.14%
CCOC(=O)c1sc(NC(=O)c2cc(-c3ccccc3)nc3ccccc23)c(C#N)c1C,active: 7.08 µM,
C(=N\NC(=Nc1ccccc1)c1ccccn1)/c1ccccn1,"inconclusive: 35.5 µM [inhibitor, single point]",
Fc1ccc(-n2cc(-c3ccccc3)c3c(NN4CCOCC4)ncnc32)cc1,"inconclusive: 7.94 µM [inhibitor, partial curve]",
Cc1ccc(C(C)C)cc1OCCN1CCCC1,"inconclusive: 5.62 µM [activator, single point]",
CCCn1c2ccccc2c2nnc(SCc3[nH]c(=O)[nH]c3C(=O)CCCCC(=O)OCC)nc21,"inconclusive: 0.891 µM [activator, full curve, poor fit]",
Cc1ccccc1/C=N/Nc1ccnc2cc(Cl)ccc12,"inconclusive: 14.1 µM [inhibitor, single point]",
Cc1csc(NC(=O)CCCSc2nc3ccccc3s2)n1,"inconclusive: 35.5 µM [inhibitor, single point]",
Brc1cc2[nH]cnc2c2ccccc12,"inconclusive: 22.4 µM [inhibitor, partial curve]",
O=C(Nc1nc2ccc(S(=O)(=O)N3CCCC3)cc2s1)c1ccccn1,"inconclusive: 7.94 µM [inhibitor, partial curve]",
CN(C)C(=O)NC(Nc1cccc([N+](=O)[O-])c1)C(Cl)(Cl)Cl (stereo not drawn),"inconclusive: 35.5 µM [inhibitor, single point]",
CCOc1ccc(Nc2oc(-c3ccco3)nc2C#N)cc1,"inconclusive: 0.708 µM [activator, single point]",
CN(C)CC(O)COc1ccc(C(C)(C)c2ccc(OCC(O)CN(C)C)cc2)cc1 (stereo not drawn),"inconclusive: 35.5 µM [inhibitor, single point]",

# Reference: PubChem BioAssay AID1688 (National Center for Advancing Translational Sciences (NCATS), 2009)
